Source: paper PMC10573801
The exact form of at least one protein or probe is not confirmed.

Amino acid sequences for entries named in this document (tags omitted). A change or cut given only in a name is not applied to a line headed by its entry.
UniProt P05552: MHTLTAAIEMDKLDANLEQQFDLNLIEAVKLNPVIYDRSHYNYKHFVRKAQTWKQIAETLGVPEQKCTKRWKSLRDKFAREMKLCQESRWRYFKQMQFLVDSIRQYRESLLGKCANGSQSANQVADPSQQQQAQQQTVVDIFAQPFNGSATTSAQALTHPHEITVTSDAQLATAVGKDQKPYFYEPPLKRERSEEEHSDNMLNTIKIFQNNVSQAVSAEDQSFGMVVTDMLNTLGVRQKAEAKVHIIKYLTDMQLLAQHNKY

Biological target: Adf-1 (UniProt P05552)
Assay: EMSA
Conditions: 0.05-0.15 ug protein; 1x PBS pH 8.0, 5 mM MgCl2, 0.1 mM ZnSO4, 1 mM DTT, 0.1% NP-40, 10% glycerol, 1 ng poly(dI-dC), 30 min at room temperature; 60-80 ng Cy5-DNA; 1% agarose in 1x TBE; recombinant protein; protein details: 6xHis (pET32a fusion); label: Cy5; probe letters rebuilt from the primers and the genome

GTTGCAACAATCTAATAACAATCCAAGTAATTATCCAAACAAGCGACGGCAAATGTCAAAGAAGGAACCCTAGAAAATACAAAACACGAATACAAGCCCGAAAAAGAAGAAGAAGCGGCGGAAGAACGCACTCAAAATCCGAAAATGAGCCATAAAACCCCAGTGAGAAATGCTACTGCTCTCTAGGCCACGCCCCCTTCACACGGAAGCCATAACGGCAGAACCAAAGTGCCGATAACTCAAAAAGAGAGAGGGCTATTCCAAGTCTGACGTGCGTAAGAGCGAGATACAGATAGGACTACGCGCACCATAATGGCTGCGCCGTAAAGCGAGAGCGATCCGAGCGAGATGGCTAACCGTATCTCTCCCTCTCTCCGCAGTCGCGGCGCAGTCGCTGCCTC (double strand) [bxd PRE Adf-1 binding site]
binding result: binds
